# US20170189504A1, “NOVEL PEPTIDES AND COMBINATION OF PEPTIDES FOR USE IN IMMUNOTHERAPY AGAINST VARIOUS CANCERS” (immatics biotechnologies GmbH, priority 2015, published 2017)
# For some assays here: Expression grades refer to the transcript from which the peptide derives; gene names, where given, were looked up from the sequence.
# Columns and labels:
# HLA-A*02 = experiment: Identification and relative LC-MS quantitation of HLA-A*02-presented tumor-associated peptides on tissue samples (presentation profiles, Tables 13A, 13B, 15, FIG. 1); parameters: species or system human; key to Presentation score NHL / Presentation score CLL / Presentation score BRCA / Presentation score AML / Presentation score GB / Presentation score NSCLC / Presentation score GBC_CCC / Presentation score UEC / Presentation score MEL / Presentation score OSCAR / Presentation score GC / Presentation score UBC / Presentation score OC / Presentation score RCC / Presentation score CRC / Presentation score PCA / Presentation score HCC / Presentation score PC / Presentation score SCLC: specifically presented on tumors (++++); very highly over-presented on tumors compared to a panel of normal tissues (+++); highly over-presented on tumors compared to a panel of normal tissues (++); over-presented on tumors compared to a panel of normal tissues (+); details: for Presentation score NSCLC: non-small cell lung cancer (N = 90) vs panel of normal tissues (N = 262); for Peptide Presentation on cancer entities: HLA-A*02-binding tumor-associated peptides
# source genes (mRNA) [1] = experiment: Expression profiling of source genes by in-house RNASeq of tumor and normal tissues (Table 18, FIG. 2); parameters: species or system human; key: very highly over-expressed in tumors compared to a panel of normal tissues (+++); highly over-expressed in tumors compared to a panel of normal tissues (++); over-expressed in tumors compared to a panel of normal tissues (+); details: source gene of peptide; for Expression score OSCAR: esophageal cancer incl. gastric-esophageal junction (N = 11) vs panel of normal tissues; for Expression score GB: glioblastoma (N = 24) vs panel of normal tissues; for Expression score NHL: non-Hodgkin lymphoma (N = 10) vs panel of normal tissues; for Expression score OC: ovarian cancer (N = 12) vs panel of normal tissues; for Expression score UBC: urinary bladder cancer (N = 10) vs panel of normal tissues; for Expression score UEC: uterine cancer (N = 10) vs panel of normal tissues
# source genes (mRNA) [2] = experiment: Gene and exon expression of source genes, TCGA tumor samples compared with normal tissue samples (Lonsdale, 2013) (Table 17); parameters: species or system human
# [3] = Table 13A, cancer entities on which the peptide was found presented
substance,measurement,setting,value
249: peptide found in PRKDC (gene looked up) (GLCERLVSL; listed as Homo sapiens) [compound 249],Presentation score CLL,"HLA-A*02; HLA-A*02 peptides, chronic lymphocytic leukemia (N = 17) vs panel of normal tissues (N = 262)",+
same,Presentation score CRC,"HLA-A*02; HLA-A*02 peptides, colorectal cancer (N = 28) vs panel of normal tissues (N = 262)",+++
same,Presentation score GB,"HLA-A*02; HLA-A*02 peptides, glioblastoma (N = 41) vs panel of normal tissues (N = 262)",++
same,Presentation score NSCLC,HLA-A*02; HLA-A*02 peptides,+
same,Presentation score RCC,"HLA-A*02; HLA-A*02 peptides, renal cell carcinoma (N = 20) vs panel of normal tissues (N = 262)",+++
same,Peptide Presentation on cancer entities,HLA-A*02; [3],"GB, NSCLC, CLL, RCC, CRC"
same,Peptide Presentation on cancer entities,"HLA-A*02; Table 13B, presentation on additional cancer entities","MEL, NHL, HNSCC"
same,Expression score BRCA,source genes (mRNA) [1]; BRCA tumors vs panel of normal tissues,+
same,Expression score AML,source genes (mRNA) [1]; acute myeloid leukemia (N = 11) vs panel of normal tissues,+
same,Expression score CRC,source genes (mRNA) [1]; colorectal cancer (N = 20) vs panel of normal tissues,+
same,Expression score OSCAR,source genes (mRNA) [1],+
same,Expression score GBC_CCC,source genes (mRNA) [1]; gallbladder adenocarcinoma and cholangiocarcinoma (N = 3) vs panel of normal tissues,+
same,Expression score GC,source genes (mRNA) [1]; gastric cancer (N = 11) vs panel of normal tissues,+
same,Expression score GB,source genes (mRNA) [1],+
same,Expression score NHL,source genes (mRNA) [1],+
same,Expression score NSCLC,source genes (mRNA) [1]; non-small cell lung cancer (N = 11) vs panel of normal tissues,++
same,Expression score OC,source genes (mRNA) [1],+
same,Expression score PC,source genes (mRNA) [1]; pancreatic cancer (N = 26) vs panel of normal tissues,+
same,Expression score SCLC,source genes (mRNA) [1]; small cell lung cancer (N = 10) vs panel of normal tissues,++
same,Expression score UBC,source genes (mRNA) [1],+
same,Expression score UEC,source genes (mRNA) [1],+
same,"Over-expression category of source gene (target coverage), BLCA","source genes (mRNA) [2]; BLCA = Bladder urothelial carcinoma (N = 408), same cutoff","B (>= 20% of tumors above the cutoff, but <50%)"
same,"Over-expression category of source gene (target coverage), BRCA","source genes (mRNA) [2]; BRCA = Breast cancer (N = 1104), tumors more than 2-fold above highest 75% percentile of normal tissues",A (>=50% of tumors above the cutoff)
same,"Over-expression category of source gene (target coverage), CHOL","source genes (mRNA) [2]; CHOL = Cholangiocarcinoma (N = 36), same cutoff","C (>=5% of tumors above the cutoff, but <20%)"
same,"Over-expression category of source gene (target coverage), COAD","source genes (mRNA) [2]; COAD = Colon and rectal adenocarcinoma (N = 462), same cutoff","B (>= 20% of tumors above the cutoff, but <50%)"
same,"Over-expression category of source gene (target coverage), DLBC","source genes (mRNA) [2]; DLBC = Lymphoid neoplasm diffuse large B-cell lymphoma (N = 48), same cutoff","B (>= 20% of tumors above the cutoff, but <50%)"
same,"Over-expression category of source gene (target coverage), ESCA","source genes (mRNA) [2]; ESCA = Esophageal cancer (N = 185), same cutoff",A (>=50% of tumors above the cutoff)
same,"Over-expression category of source gene (target coverage), GBM","source genes (mRNA) [2]; GBM = Glioblastoma multiforme (N = 169), same cutoff","C (>=5% of tumors above the cutoff, but <20%)"
same,"Over-expression category of source gene (target coverage), KICH","source genes (mRNA) [2]; KICH = Kidney chromophobe (N = 66), same cutoff","C (>=5% of tumors above the cutoff, but <20%)"
same,"Over-expression category of source gene (target coverage), KIRC","source genes (mRNA) [2]; KIRC = Clear cell kidney carcinoma (N = 534), same cutoff","C (>=5% of tumors above the cutoff, but <20%)"
same,"Over-expression category of source gene (target coverage), KIRP","source genes (mRNA) [2]; KIRP = Papillary kidney carcinoma (N = 291), same cutoff","C (>=5% of tumors above the cutoff, but <20%)"
same,"Over-expression category of source gene (target coverage), LAML","source genes (mRNA) [2]; LAML = Acute Myeloid Leukemia (N = 173), same cutoff",A (>=50% of tumors above the cutoff)
same,"Over-expression category of source gene (target coverage), LGG","source genes (mRNA) [2]; LGG = Lower grade glioma (N = 534), same cutoff","B (>= 20% of tumors above the cutoff, but <50%)"
same,"Over-expression category of source gene (target coverage), LUAD","source genes (mRNA) [2]; LUAD = Lung adenocarcinoma (N = 517), same cutoff","B (>= 20% of tumors above the cutoff, but <50%)"
same,"Over-expression category of source gene (target coverage), LUSC","source genes (mRNA) [2]; LUSC = Lung squamous cell carcinoma (N = 503), same cutoff",A (>=50% of tumors above the cutoff)
same,"Over-expression category of source gene (target coverage), OV","source genes (mRNA) [2]; OV = Ovarian serous cystadenocarcinoma (N = 309), same cutoff","B (>= 20% of tumors above the cutoff, but <50%)"
same,"Over-expression category of source gene (target coverage), PAAD","source genes (mRNA) [2]; PAAD = Pancreatic ductal adenocarcinoma (N = 179), same cutoff","C (>=5% of tumors above the cutoff, but <20%)"
same,"Over-expression category of source gene (target coverage), PRAD","source genes (mRNA) [2]; PRAD = Prostate adenocarcinoma (N = 498), same cutoff","C (>=5% of tumors above the cutoff, but <20%)"
same,"Over-expression category of source gene (target coverage), READ","source genes (mRNA) [2]; READ = Colon and rectal adenocarcinoma (N = 167), same cutoff","B (>= 20% of tumors above the cutoff, but <50%)"
same,"Over-expression category of source gene (target coverage), SKCM","source genes (mRNA) [2]; SKCM = Skin cutaneous melanoma (N = 473), same cutoff",A (>=50% of tumors above the cutoff)
same,"Over-expression category of source gene (target coverage), STAD","source genes (mRNA) [2]; STAD = Stomach adenocarcinoma (N = 415), same cutoff",A (>=50% of tumors above the cutoff)
same,"Over-expression category of source gene (target coverage), UCEC","source genes (mRNA) [2]; UCEC = Uterine corpus endometrial carcinoma (N = 546), same cutoff","C (>=5% of tumors above the cutoff, but <20%)"
65: peptide found in SMARCE1 (gene looked up) (SVVPDVRSV; listed as Homo sapiens) [compound 65],Presentation score OSCAR,"HLA-A*02; HLA-A*02 peptides, esophageal cancer, including cancer of the gastric-esophageal junction (N = 17) vs panel of normal tissues (N = 262)",++++
same,Presentation score GC,"HLA-A*02; HLA-A*02 peptides, gastric cancer (N = 29) vs panel of normal tissues (N = 262)",++++
same,Presentation score NSCLC,HLA-A*02; HLA-A*02 peptides,++++
same,Peptide Presentation on cancer entities,HLA-A*02; [3],"GC, NSCLC, OSCAR"
same,Expression score OSCAR,source genes (mRNA) [1],++
same,Expression score GB,source genes (mRNA) [1],+
same,Expression score NHL,source genes (mRNA) [1],+
same,Expression score OC,source genes (mRNA) [1],+++
same,Expression score UBC,source genes (mRNA) [1],+
same,Expression score UEC,source genes (mRNA) [1],+
same,"Target coverage: over-expression category of source gene, LAML","source genes (mRNA) [2]; Acute Myeloid Leukemia (N = 173), cutoff more than 2-fold above highest 75% percentile of normal tissue samples",A (>=50% of tumors above the cutoff)
same,"Target coverage: over-expression category of source gene, BLCA","source genes (mRNA) [2]; Bladder urothelial carcinoma (N = 408), cutoff more than 2-fold above highest 75% percentile of normal tissue samples",A (>=50% of tumors above the cutoff)
same,"Target coverage: over-expression category of source gene, BRCA","source genes (mRNA) [2]; Breast cancer (N = 1104), cutoff more than 2-fold above highest 75% percentile of high and medium risk normal tissue samples",A (>=50% of tumors above the cutoff)
same,"Target coverage: over-expression category of source gene, CHOL","source genes (mRNA) [2]; Cholangiocarcinoma (N = 36), cutoff more than 2-fold above highest 75% percentile of normal tissue samples",A (>=50% of tumors above the cutoff)
same,"Target coverage: over-expression category of source gene, KIRC","source genes (mRNA) [2]; Clear cell kidney carcinoma (N = 534), cutoff more than 2-fold above highest 75% percentile of normal tissue samples",A (>=50% of tumors above the cutoff)
same,"Target coverage: over-expression category of source gene, READ","source genes (mRNA) [2]; Colon and rectal adenocarcinoma (N = 167), cutoff more than 2-fold above highest 75% percentile of normal tissue samples",A (>=50% of tumors above the cutoff)
same,"Target coverage: over-expression category of source gene, COAD","source genes (mRNA) [2]; Colon and rectal adenocarcinoma (N = 462), cutoff more than 2-fold above highest 75% percentile of normal tissue samples",A (>=50% of tumors above the cutoff)
same,"Target coverage: over-expression category of source gene, ESCA","source genes (mRNA) [2]; Esophageal cancer (N = 185), cutoff more than 2-fold above highest 75% percentile of normal tissue samples",A (>=50% of tumors above the cutoff)
same,"Target coverage: over-expression category of source gene, GBM","source genes (mRNA) [2]; Glioblastoma multiforme (N = 169), cutoff more than 2-fold above highest 75% percentile of normal tissue samples",A (>=50% of tumors above the cutoff)
same,"Target coverage: over-expression category of source gene, KICH","source genes (mRNA) [2]; Kidney chromophobe (N = 66), cutoff more than 2-fold above highest 75% percentile of normal tissue samples",A (>=50% of tumors above the cutoff)
same,"Target coverage: over-expression category of source gene, LIHC","source genes (mRNA) [2]; Liver hepatocellular carcinoma (N = 374), cutoff more than 2-fold above highest 75% percentile of normal tissue samples",A (>=50% of tumors above the cutoff)
same,"Target coverage: over-expression category of source gene, LGG","source genes (mRNA) [2]; Lower grade glioma (N = 534), cutoff more than 2-fold above highest 75% percentile of normal tissue samples",A (>=50% of tumors above the cutoff)
same,"Target coverage: over-expression category of source gene, LUAD","source genes (mRNA) [2]; Lung adenocarcinoma (N = 517), cutoff more than 2-fold above highest 75% percentile of normal tissue samples",A (>=50% of tumors above the cutoff)
same,"Target coverage: over-expression category of source gene, LUSC","source genes (mRNA) [2]; Lung squamous cell carcinoma (N = 503), cutoff more than 2-fold above highest 75% percentile of normal tissue samples",A (>=50% of tumors above the cutoff)
same,"Target coverage: over-expression category of source gene, DLBC","source genes (mRNA) [2]; Lymphoid neoplasm diffuse large B-cell lymphoma (N = 48), cutoff more than 2-fold above highest 75% percentile of normal tissue samples",A (>=50% of tumors above the cutoff)
same,"Target coverage: over-expression category of source gene, OV","source genes (mRNA) [2]; Ovarian serous cystadenocarcinoma (N = 309), cutoff more than 2-fold above highest 75% percentile of normal tissue samples",A (>=50% of tumors above the cutoff)
same,"Target coverage: over-expression category of source gene, PAAD","source genes (mRNA) [2]; Pancreatic ductal adenocarcinoma (N = 179), cutoff more than 2-fold above highest 75% percentile of normal tissue samples",A (>=50% of tumors above the cutoff)
same,"Target coverage: over-expression category of source gene, KIRP","source genes (mRNA) [2]; Papillary kidney carcinoma (N = 291), cutoff more than 2-fold above highest 75% percentile of normal tissue samples",A (>=50% of tumors above the cutoff)
same,"Target coverage: over-expression category of source gene, PRAD","source genes (mRNA) [2]; Prostate adenocarcinoma (N = 498), cutoff more than 2-fold above highest 75% percentile of normal tissue samples",A (>=50% of tumors above the cutoff)
same,"Target coverage: over-expression category of source gene, SKCM","source genes (mRNA) [2]; Skin cutaneous melanoma (N = 473), cutoff more than 2-fold above highest 75% percentile of normal tissue samples",A (>=50% of tumors above the cutoff)
same,"Target coverage: over-expression category of source gene, STAD","source genes (mRNA) [2]; Stomach adenocarcinoma (N = 415), cutoff more than 2-fold above highest 75% percentile of normal tissue samples",A (>=50% of tumors above the cutoff)
same,"Target coverage: over-expression category of source gene, UCEC","source genes (mRNA) [2]; Uterine corpus endometrial carcinoma (N = 546), cutoff more than 2-fold above highest 75% percentile of normal tissue samples",A (>=50% of tumors above the cutoff)
